# In article PMC7862700:
# Protein sequences, listed by entry. Tags and fused reporters are not part of them. Lines headed by an entry give the natural chain unless they say otherwise; changes in a name come on top.
# UniProt Q00613: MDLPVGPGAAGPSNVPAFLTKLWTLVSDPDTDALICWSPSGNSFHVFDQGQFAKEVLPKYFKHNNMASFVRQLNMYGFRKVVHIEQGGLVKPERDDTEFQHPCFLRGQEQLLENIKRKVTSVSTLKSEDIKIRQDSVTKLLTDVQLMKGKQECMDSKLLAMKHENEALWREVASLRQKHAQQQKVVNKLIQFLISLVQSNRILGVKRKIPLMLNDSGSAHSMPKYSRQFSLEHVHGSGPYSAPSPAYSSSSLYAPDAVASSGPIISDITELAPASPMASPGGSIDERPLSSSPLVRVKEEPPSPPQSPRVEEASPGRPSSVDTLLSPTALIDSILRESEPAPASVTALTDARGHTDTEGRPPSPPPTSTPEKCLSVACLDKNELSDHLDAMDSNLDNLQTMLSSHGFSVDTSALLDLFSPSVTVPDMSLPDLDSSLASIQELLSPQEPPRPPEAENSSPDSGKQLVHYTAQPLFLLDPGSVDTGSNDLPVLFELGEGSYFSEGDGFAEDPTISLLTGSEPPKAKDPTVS
# The list shows a part of the results, in another mix than the full data. For part of these data: At the low end of the ranking the order means little. Some of the results follow. For part of these data: The source does not settle which construct or isoform was used.
# Experiments:
# HSF1 = HSF1 (UniProt Q00613); experiment: DAPPL (digital affinity profiling via proximity ligation, sequencing); details: 10 mM Tris-HCl pH 7.5, 50 mM NaCl, 1 mM DTT, 4% glycerol, room temperature, 30 min; GST-TFs on glutathione beads, 16-mer random dsDNA library, 0.1% …; high values mean tight binding; double strand, one strand shown; scale: fold enrichment (6-mer frequency, TF over GST control)
# ELF2 = target: T1, ELF2 (UniProt Q15723); experiment: as above; details: 10 mM Tris-HCl pH 7.5, 50 mM NaCl, 1 mM DTT, 4% glycerol, room temperature, 30 min; GST-TFs on glutathione beads, 16-mer random dsDNA library, 0.1% …; high values mean tight binding; double strand, one strand shown; scale: fold enrichment (6-mer frequency, TF over GST control)
# T1 sequence: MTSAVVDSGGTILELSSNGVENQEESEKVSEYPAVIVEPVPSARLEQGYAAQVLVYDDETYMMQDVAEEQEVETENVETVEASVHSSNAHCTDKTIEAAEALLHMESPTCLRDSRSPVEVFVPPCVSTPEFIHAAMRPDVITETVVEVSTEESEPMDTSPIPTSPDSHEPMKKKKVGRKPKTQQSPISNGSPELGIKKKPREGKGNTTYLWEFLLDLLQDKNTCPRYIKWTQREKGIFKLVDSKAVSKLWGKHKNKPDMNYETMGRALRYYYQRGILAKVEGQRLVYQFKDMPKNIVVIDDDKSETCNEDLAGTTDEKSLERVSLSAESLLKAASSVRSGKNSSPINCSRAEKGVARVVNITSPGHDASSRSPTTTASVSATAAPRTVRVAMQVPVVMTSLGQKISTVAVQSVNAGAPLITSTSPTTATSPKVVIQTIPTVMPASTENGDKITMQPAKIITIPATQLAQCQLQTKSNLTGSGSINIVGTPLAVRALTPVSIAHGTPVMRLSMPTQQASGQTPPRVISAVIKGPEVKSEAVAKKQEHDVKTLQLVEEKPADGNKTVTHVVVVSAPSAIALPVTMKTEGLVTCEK
Sequence,binding signal (HSF1),binding signal (ELF2)
TAGGGC,1.05,0.995
CGTTCC,1.44,1.52
GTTTTG,0.948,1.2
TGTTGT,0.946,1.08
GTAAAT,1.22,1.12
ATCCGT,0.891,1.04
ATTTAA,1.62,1.2
TGGTGA,0.867,0.904
ACATCG,1.01,0.997
GCAGCT,0.974,1.01
GTCCAA,0.839,0.94
GACACT,0.827,0.989
GAAATT,1.48,1.47
CGACAG,0.91,0.879
CGCTTG,0.906,1
ACGCGG,0.737,1.17
GCGTTG,0.732,0.866
CAAAGT,0.879,0.916
GAATGT,1.88,1.07
TGCGTT,1,1.1
TGTCAA,0.853,0.977
ACTTGT,1.12,1.2
GCAACC,0.795,1.04

Sequence,binding signal (HSF1),binding signal (ELF2)
GACCAA,0.771,0.92
TTCCGC,1.34,4.54
ATTTCG,1.63,1.24
GATTAA,2.83,1.03
GCTGCC,0.869,1.04
GTGCCT,0.827,0.999
AAAGCA,1.04,1.06
TTTGTA,1.65,1.49
TTGCCA,1.01,1.03
CCGGCG,0.68,0.922
CCCGGC,0.918,1.12
TGTTCG,1.6,1.04
TCACCC,0.927,1.15
GGCTCG,0.935,0.973
TGTCAT,0.963,1.1
GTACTA,1.15,1.08
AGGATG,0.83,1.1
GCTAGC,1.19,1.13
AATGAA,1.12,1.2
GCGCGT,0.753,0.825
TTCTAA,1.83,1.19
TACGAC,1.14,1.27
CCTGCC,0.953,1.23

Sequence,binding signal (HSF1),binding signal (ELF2)
AGGTTT,1.04,0.977
CTGGTC,0.972,1.14
ACATAA,1.2,1.09
CTCCAC,1.26,1.31
CCGCGG,0.722,0.964
GCTAAG,1.13,0.958
TCAGCC,0.973,0.967
CCGGTG,0.573,1.11
ACAAGT,0.775,0.912
GCATCT,0.954,0.979
ACCTTC,2.87,2.01
ACCTGT,0.755,0.953
CTTATT,1.87,1.48
CCCTGT,0.88,1.06
TGTTGC,1.02,1.3
CGATCA,1.22,0.984
CAGTTC,0.771,1.1
AGGATA,0.957,1.05
GGATGC,0.772,1.19
AATGTG,0.93,0.954
CAAGTT,0.933,1.03
TTGCTT,1.1,1.35
ACGACG,1.02,1.07

Sequence,binding signal (HSF1),binding signal (ELF2)
CCCTTG,0.976,1.12
CTCGAG,2,1.1
GGCTTG,0.886,0.969
GTCCCA,0.875,1.02
ATTACA,1.4,1.13
ACGAAA,1.44,1.15
ATTAAC,2.07,1.24
CGTCCA,0.949,0.993
GTGTTA,0.941,0.976
ATCACG,0.992,0.959
TAAGGC,0.984,0.89
AGCAAA,1.18,0.997
TACATA,1.15,1.18
GCTACG,0.926,1.1
GTAACC,0.785,1.09
TTCCAA,1.47,1.19
CACGTT,1.11,1.24
TCTCGT,2.01,1.13
CCTGAA,1.54,1.35
ACACTG,0.943,1.01
TATTAG,1.42,1.02
CTATGT,0.949,1.07
ACTGAC,0.943,1.16

Sequence,binding signal (HSF1),binding signal (ELF2)
GCCTCT,1.25,1.3
TGCGGC,0.883,1.04
CAATTA,1.12,1.12
TTACGT,1.21,1.08
CGGGCT,0.887,0.998
TGGCGA,1.03,0.985
AAACGC,1.05,1.29
CTCCAT,1.21,1.26
TTTGTC,1.11,1.25
TGGGTA,0.857,0.948
GCCCCC,0.837,1.07
CACATA,0.992,1.12
TCAAGG,1.04,1.02
CGTTGG,0.797,0.884
CTCAGC,1.1,1.22
TAGATC,1.49,1.01
TTAAGG,1.67,1.17
TGGACA,0.9,1.03
ACGACA,0.963,1.05
ATGCTG,1.02,1.13
TGACAT,1.01,1.2
TTTATC,1.65,1.26
